At least one result comes from cells or an extract, where the contact may be indirect. For some assays here: Negatives hold for the conditions tested.

Chains of the proteins cited; added tags and fusions are not shown. A change or cut given only in a name is not applied to a line headed by its entry. Chains listed by the source or under a name are the forms on record and can include a tag or linker.
UniProt P48432: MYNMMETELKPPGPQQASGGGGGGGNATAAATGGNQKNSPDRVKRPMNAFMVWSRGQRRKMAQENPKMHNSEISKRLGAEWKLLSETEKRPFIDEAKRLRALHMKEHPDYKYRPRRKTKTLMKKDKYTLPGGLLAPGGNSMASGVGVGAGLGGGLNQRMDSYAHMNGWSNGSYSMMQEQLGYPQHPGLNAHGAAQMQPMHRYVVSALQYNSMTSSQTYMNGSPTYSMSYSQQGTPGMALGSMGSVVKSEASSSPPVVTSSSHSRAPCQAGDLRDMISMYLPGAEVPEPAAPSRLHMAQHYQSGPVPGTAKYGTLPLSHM
UniProt P20263, whole entry: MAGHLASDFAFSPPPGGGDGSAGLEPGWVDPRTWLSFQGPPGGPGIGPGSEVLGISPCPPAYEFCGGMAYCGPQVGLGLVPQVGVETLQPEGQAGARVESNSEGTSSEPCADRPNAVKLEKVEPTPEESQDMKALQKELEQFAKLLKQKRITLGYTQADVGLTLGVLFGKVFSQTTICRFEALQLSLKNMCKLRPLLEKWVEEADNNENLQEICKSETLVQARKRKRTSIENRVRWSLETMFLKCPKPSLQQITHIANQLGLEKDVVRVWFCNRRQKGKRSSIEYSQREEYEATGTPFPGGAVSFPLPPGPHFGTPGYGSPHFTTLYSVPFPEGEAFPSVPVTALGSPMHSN
Oct4/Sox2 heterodimer (Mus musculus), one chain, as listed by the source, chain 1 of 2: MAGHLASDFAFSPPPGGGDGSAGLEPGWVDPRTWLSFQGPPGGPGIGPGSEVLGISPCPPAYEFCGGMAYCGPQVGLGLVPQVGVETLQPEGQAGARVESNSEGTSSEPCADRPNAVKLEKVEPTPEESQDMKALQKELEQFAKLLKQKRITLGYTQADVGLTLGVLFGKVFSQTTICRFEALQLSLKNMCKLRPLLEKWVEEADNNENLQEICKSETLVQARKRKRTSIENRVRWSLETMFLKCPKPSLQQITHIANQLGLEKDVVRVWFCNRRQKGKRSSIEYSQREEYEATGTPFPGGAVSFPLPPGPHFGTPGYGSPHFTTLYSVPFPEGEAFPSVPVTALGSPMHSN
Oct4/Sox2 heterodimer (Mus musculus), one chain, as listed by the source, chain 2 of 2: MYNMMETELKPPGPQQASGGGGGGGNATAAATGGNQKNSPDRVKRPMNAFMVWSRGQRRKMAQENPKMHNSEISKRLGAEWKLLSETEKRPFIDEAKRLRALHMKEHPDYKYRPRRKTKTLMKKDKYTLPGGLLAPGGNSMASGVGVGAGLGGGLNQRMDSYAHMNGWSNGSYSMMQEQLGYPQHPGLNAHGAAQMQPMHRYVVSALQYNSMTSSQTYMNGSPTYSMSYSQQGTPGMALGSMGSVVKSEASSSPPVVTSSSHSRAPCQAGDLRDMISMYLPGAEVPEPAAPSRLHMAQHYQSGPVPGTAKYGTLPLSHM

Data set [1] has as its target Sox2 (Mus musculus) (UniProt P48432). In words: competition with a labelled probe. To be noted: protein in an extract.
For data set [2], the system named is Oct4/Sox2 heterodimer (Mus musculus). In words: competition with a labelled probe. To be noted: protein in an extract.
For data set [3], the target named is Oct4 (Pou5f1) (Mus musculus) (UniProt P20263). In words: competition with a labelled probe. To be noted: protein in an extract.
Data set [4] deals with Oct4/Sox2 heterodimer (Mus musculus). In words: EMSA. The settings on record: complex C, protein in an extract. On the technique in general: In EMSA bound probe runs differently from free probe, usually more slowly.
The target of data set [5] is Oct4 (Pou5f1) (Mus musculus) (UniProt P20263). In words: EMSA. To be noted: complex A, protein in an extract.
Data set [6] has as its target Sox2 (Mus musculus) (UniProt P48432). In words: EMSA. The settings on record: complex E, Sox2 monomer; protein in an extract.
Where [7] appears, read: 20-fold excess non-specific competitor.

Regarding “CTGCAGGTGGGATTAACTGTGAATTCA (double strand) [NNS]”, the binding result in the data set with Sox2 (Mus musculus) [1] (20-fold excess non-specific competitor, FOS probe) is given as “no binding”; in data set [2] (setting [7]) it was “no binding”; in data set [3] (setting [7]) it was “no binding”.

On to “CTTACAGCTTCTTTTGCATTACAATGTCCATGGTGGA (double strand) [NOS]”, for which the binding result in data set [4] (supershifted by both antibodies) is listed as “binds”; in data set [5] (supershifted by anti-Oct4, poly-dGdC, RT), “binds”.

Take “CTTACAGCTTCTTTCAAATTAACCTGTCCATGGTGGA (double strand) [NmOmS]”: the binding result in the data set with Sox2 (Mus musculus) [1] (20-fold excess, FOS probe, variant of NOS) is on record as “no binding”; in data set [2] (20-fold excess, variant of NOS), “no binding”; in data set [3] (20-fold excess, variant of NOS), “no binding”.

In the case of “CTTACAGCTTCTTTCAAATTACAATGTCCATGGTGGA (double strand) [NmOS]”, the binding result with Sox2 (Mus musculus) [1] (20-fold excess, still competes Sox2 monomer on FOS, variant of NOS) is “binds”; in data set [2] (20-fold excess, fails to compete, variant of NOS), “no binding”; in data set [3] (20-fold excess unlabeled competitor, octamer mutant fails to compete, variant of NOS) it was “no binding”.

Take “TTTAAGTATCCCATTAGCATCCAAACAAAGAGTTTTC (double strand) [FOS]”: the binding result (in the data set with Sox2 (Mus musculus) [6]; in data set [4]; in data set [5]) was “binds” each time.

Take “CTTACAGCTTCTTTTGCATTAACCTGTCCATGGTGGA (double strand) [NOmS]”: the binding result with Sox2 (Mus musculus) [1] (20-fold excess, fails to compete Sox2 monomer on FOS, variant of NOS) is “no binding”; in data set [2] (variant of NOS), “no binding”; in data set [3] (20-fold excess, Oct4 monomer still competed, variant of NOS) it was “binds”.

Values taken from patent publication US20090018059.
